Data reported in patent US20220242957A1.
Results are given in words; binding and its absence hold for the method and conditions named. Some entries that bind do so weakly or less than the wild type.

Sequences of proteins named here, by UniProt entry; tags and fusion partners are left off. A change or cut given only in a name is not applied to a line headed by its entry.
UniProt P51683: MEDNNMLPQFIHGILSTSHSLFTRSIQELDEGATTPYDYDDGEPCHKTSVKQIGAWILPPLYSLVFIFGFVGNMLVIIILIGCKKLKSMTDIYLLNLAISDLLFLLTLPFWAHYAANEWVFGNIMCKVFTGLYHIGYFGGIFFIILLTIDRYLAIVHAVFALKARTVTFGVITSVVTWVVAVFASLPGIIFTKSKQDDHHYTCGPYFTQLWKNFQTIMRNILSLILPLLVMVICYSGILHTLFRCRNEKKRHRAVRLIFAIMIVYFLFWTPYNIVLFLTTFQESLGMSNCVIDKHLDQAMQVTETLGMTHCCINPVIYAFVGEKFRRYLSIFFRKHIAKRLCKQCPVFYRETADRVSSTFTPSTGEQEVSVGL
UniProt P09581: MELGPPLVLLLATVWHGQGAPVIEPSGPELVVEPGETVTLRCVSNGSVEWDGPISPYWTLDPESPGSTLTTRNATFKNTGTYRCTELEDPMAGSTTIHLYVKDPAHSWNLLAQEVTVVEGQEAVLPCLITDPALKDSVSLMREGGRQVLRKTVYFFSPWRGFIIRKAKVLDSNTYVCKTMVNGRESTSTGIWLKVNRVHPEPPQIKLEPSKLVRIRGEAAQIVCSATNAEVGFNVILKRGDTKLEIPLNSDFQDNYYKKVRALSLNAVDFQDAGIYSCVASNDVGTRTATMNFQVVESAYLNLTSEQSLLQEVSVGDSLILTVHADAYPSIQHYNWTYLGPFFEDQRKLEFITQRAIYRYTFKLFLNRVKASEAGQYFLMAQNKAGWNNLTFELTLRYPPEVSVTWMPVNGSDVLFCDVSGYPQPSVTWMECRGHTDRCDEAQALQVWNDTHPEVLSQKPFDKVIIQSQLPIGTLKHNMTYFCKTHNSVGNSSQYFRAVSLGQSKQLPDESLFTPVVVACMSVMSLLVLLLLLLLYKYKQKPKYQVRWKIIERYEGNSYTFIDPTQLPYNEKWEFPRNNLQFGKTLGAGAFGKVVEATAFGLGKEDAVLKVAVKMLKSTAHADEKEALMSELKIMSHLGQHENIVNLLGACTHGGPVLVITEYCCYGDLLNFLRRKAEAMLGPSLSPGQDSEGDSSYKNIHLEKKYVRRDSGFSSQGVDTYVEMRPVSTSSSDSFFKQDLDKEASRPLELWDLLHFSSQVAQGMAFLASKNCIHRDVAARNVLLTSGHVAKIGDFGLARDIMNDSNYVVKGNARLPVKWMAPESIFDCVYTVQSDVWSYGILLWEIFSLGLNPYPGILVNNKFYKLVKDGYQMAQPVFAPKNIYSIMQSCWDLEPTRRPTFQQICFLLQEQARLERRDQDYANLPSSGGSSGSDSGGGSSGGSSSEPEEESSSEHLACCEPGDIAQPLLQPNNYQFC

Molecular target: mouse CCR2 and mouse CSF1R, both expressed on the same ExpiCHO cells (mouse) (UniProt P51683+P09581)
Assay: flow cytometry on transiently transfected ExpiCHO cells

B1: UniTI-01 (multispecific molecule #1, anti-CCR2/anti-CSF1R bispecific antibody) (bispecific antibody)
heavy 1: QVQLQESGPGLVQPSQTLSLTCTVSGFSLTDFSVHWVRQPPGKGLEWMGRIRSEGNTDYNSALKSRLSISRDTSKSQVFLKMNSLQTEDTAIYFCTRGDILGFGYWGQGVMVTVSSAQTTAPSVYPLAPGCGDTTSSTVTLGCLVKGYFPEPVTVTWNSGALSSDVHTFPAVLQSGLYTLTSSVTSSTWPSQTVTCNVAHPASSTKVDKKVERRTIKPCPPCKCPAPNLLGGPSVFIFPPKIKDVLMISLSPIVTCVVVDVSEDDPDVQISWFVNNVEVHTAQTQTHREDYNSTLRVVSALPIQHQDWMSGKEFKCKVNNKDLPAPIERTISKPKGSVRAPQVYVLPPCEEEMTKKQVTLWCMVTDFMPEDIYVEWTNNGKTELNYKNTEPVLDSDGSYFMYSKLRVEKKNWVERNSYSCSVVHEGLHNHHTTKSFSRTPGK
light 1: DIVMTQSPLSVSVTPGESASISCRSSKSLLHFKGITFVYWYLQKPGQSPQLLIFRMSSLASGVPDRFSGSGSETDFTLKISRVEAEDVGTYYCGQLLENPYTFGAGTKLELKRADAAPTVSIFPPSMEQLTSGGATVVCFVNNFYPRDISVKWKIDGSEQRDGVLDSVTDQDSKDSTYSMSSTLSLTKVEYERHNLYTCEVVHKTSSSPVVKSFNRNEC
heavy 2: QVQLQQSGAELVKPGSSVKISCKASGYTFTSNFMHWIKQQPGNGLEWIGWIYPGDGDTEYNQKFNGKATLTADKSSSTAYMQLSSLTSEDSAVYFCAVNYGGYVLDAWGQGASVTVSSAETTAPSVYPLAPGTALKSNSMVTLGCLVKGYFPEPVTVTWNSGALSSGVHTFPAVLQSGLYTLTSSVTVPSSTWSSQAVTCNVAHPASSTKVDKKIVPRECNTIKPCPPCKCPAPNLLGGPSVFIFPPKIKDVLMISLSPIVTCVVVDVSEDDPDVQISWFVNNVEVHTAQTQTHREDYNSTLRVVSALPIQHQDWMSGKEFKCKVNNKDLPAPIERTISKPKGSVRAPQVCVLPPPEEEMTKKQVTLSCAVTDFMPEDIYVEWTNNGKTELNYKNTEPVLDSDGSYFMVSKLRVEKKNWVERNSYSCSVVHEGLHNHHTTKSFSRTPGK
light 2: EIVLTQSPTTMAASPGEKVTITCRASSSTNYMSWYQQKSGASPKPWIYETSKLASGVPDRFSGSGSGTSYSFTISSMETEDAATYYCHQWSSTPLTFGSGTKLEIKRADAAPTVSIFPPSMEQLTSGGATVVCFVNNFYPRDISVKWKIDGSEQRDGVLDSVTDQDSKDSTYSMSSTLSLTKVEYERHNLYTCEVVHKTSSSPVVKSFNRNEC
B1 was tested. Which binding did it give?
The binding was “binds”.
